In PMC2794253:
These are yes or no findings as the source states them, for the method shown. Binding seen in cells or lysates may run through a third protein. Some entries that bind do so weakly or less than the wild type.

Target: bZIP63 (UniProt B9DGI8)
Assay: split reporter; BiFC in Arabidopsis mesophyll protoplasts from the Tape-Arabidopsis Sandwich method; PEG-mediated co-transfection of plasmids for bZIP63 fused to the N-terminus and the C-terminus of GFP; fluorescence seen in the nucleus

- binding: binds
B1: bZIP63 (protein, UniProt B9DGI8 1-314)
chain: MEKVFSDEEISGNHHWSVNGMTSLNRSASEWAFNRFIQESSAAADDGESTTACGVSVSSPPNVPVDSEEYRAFLKSKLNLACAAVAMKRGTFIKPQDTSGRSDNGGANESEQASLASSKATPMMSSAITSGSELSGDEEEADGETNMNPTNVKRVKRMLSNRESARRSRRRKQAHLSELETQVSQLRVENSKLMKGLTDVTQTFNDASVENRVLKANIETLRAKVKMAEETVKRLTGFNPMFHNMPQIVSTVSLPSETSNSPDTTSSQVTTPEIISSGNKGKALIGCKMNRTASMRRVESLEHLQKRIRSVGDQ
